Assay [1] addresses Heterochromatin Protein 1β (mouse (endogenous in R1 ESCs and MEFs)) (UniProt P83917). The assay is described as follows: affinity purification with mass spectrometry; endogenous HP1β immunoprecipitated (antibody 1MOD-1A9, Protein G-agarose) from the nuclear (S3 and P3) fractions of 10^8 R1 ESCs; wash buffer 30 mM Tris-HCl pH 7.5, 0.2 mM EDTA, 0.5 mM dithiothreitol, 0.2 % Triton X-100, 150 mM NaCl; anti-GFP as negative control; LC-MS/MS; two biological replicates.

Amino acid sequences for entries named in this document (tags omitted).
UniProt P83917: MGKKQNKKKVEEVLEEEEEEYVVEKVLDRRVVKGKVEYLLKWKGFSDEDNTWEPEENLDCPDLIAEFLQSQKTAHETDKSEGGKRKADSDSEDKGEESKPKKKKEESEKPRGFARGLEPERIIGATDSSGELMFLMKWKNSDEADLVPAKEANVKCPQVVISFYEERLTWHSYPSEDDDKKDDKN

Assay [2] has the same target. Kind of assay: affinity purification with mass spectrometry; endogenous HP1β immunoprecipitated (antibody 1MOD-1A9, Protein G-agarose) from the nuclear (S3 and P3) fractions of 10^8 MEFs; wash buffer 30 mM Tris-HCl pH 7.5, 0.2 mM EDTA, 0.5 mM dithiothreitol, 0.2 % Triton X-100, 150 mM NaCl; anti-GFP as negative control; LC-MS/MS; two biological replicates.
Assay [3] deals with T1, Heterochromatin Protein 1β (mouse (endogenous in R1 ESCs and MEFs)), P83917. The assay is described as follows: affinity purification with mass spectrometry; endogenous HP1β immunoprecipitated (antibody 1MOD-1A9, Protein G-agarose) from the nuclear (S3 and P3) fractions of 10^8 R1 ESCs; wash buffer 30 mM Tris-HCl pH 7.5, 0.2 mM EDTA, 0.5 mM dithiothreitol, 0.2 % Triton X-100, 150 mM NaCl; anti-GFP as negative control; LC-MS/MS; two biological replicates. Particulars: remark: other sources report otherwise.

Assay [4] deals with T1, Heterochromatin Protein 1β (mouse …). The assay is described as follows: affinity purification with mass spectrometry; endogenous HP1β immunoprecipitated (antibody 1MOD-1A9, Protein G-agarose) from the nuclear (S3 and P3) fractions of 10^8 MEFs; wash buffer 30 mM Tris-HCl pH 7.5, 0.2 mM EDTA, 0.5 mM dithiothreitol, 0.2 % Triton X-100, 150 mM NaCl; anti-GFP as negative control; LC-MS/MS; two biological replicates. The note with it: remark: other sources report otherwise.

No constants are given. Whether binding was seen depends on the method and setting. In cells and extracts the contact can be indirect. These calls come from enrichment with a bait or labelling near it, and not all partners need be listed. For some assays here: A no says only that the protein was not detected with the bait.

This note sets out measurements from paper PMC4587738.

B1: hnRNPH2 (protein, UniProt P70333 1-449)
chain: MMLSTEGREGFVVKVRGLPWSCSAEEVMRFFSDCKIQNGTSGVRFIYTREGRPSGEAFVELESEDEVKLALKKDRETMGHRYVEVFKSNSVEMDWVLKHTGPNSPDTANDGFVRLRGLPFGCSKEEIVQFFSGLEIVPNGMTLPVDFQGRSTGEAFVQFASQEIAEKALKKHKERIGHRYIEIFKSSRAEVRTHYDPPRKLMTMQRPGPYDRPGAGRGYNSIGRGAGFERMRRGAYGGGYGGYDDYGGYNDGYGFGSDRFGRDLNYCFSGMSDHRYGDGGSSFQSTTGHCVHMRGLPYRATENDIYNFFSPLNPMRVHIEIGPDGRVTGEADVEFATHEDAVAAMAKDKANMQHRYVELFLNSTAGTSGGAYDHSYVELFLNSTAGASGGAYGSQMMGGMGLSNQSSYGGPASQQLSGGYGGGYGGQSSMSGYDQVLQENSSDYQSNLA
With B1, the binding entry in assay [1] and in assay [2] was “binds” throughout.

B2: Eif4enif1 (protein, UniProt Q9EST3 1-983)
chain: MEKSVAETENGDAFLELKKLPTSKSPHRYTKEELLDIKERPYSKQRPSCLSEKYDSDGVWDPEKWHASLYPASGRSSPVESLKKESESDRPSLVRRIADPRERVKEDDLDVVLSPQRRSFGGGCHVTAAVSSRRSGSPLEKDSDGLRLLGGRRIGSGRIISARAFEKDHRLSDKDLRDLRDRDRERDYKDKRFRREFGDSKRVFGERRRNDSYTEEEPEWFSAGPTSQSETIELTGFDDKILEEDHKGRKRTRRRTASVKEGIVECNGGVAEEDEVEVILAQEPSADQEVPRDVILPEQSPGEFDFNEFFNLDKVPCLASMIEDVLGEGSVSASRFSRWFSNPSRSGSRSSSLGSTPHEELERLAGLEQAVLSPGQNSGNYFAPIPSEDHAENKVDILEMLQKAKVDLKPLLSSLSANKEKLKESSHSGVVLSVEEVEAGLKGLKVDQQMKNSTPFMAEHLEETLSAASSNRQLKKDGDMTAFNKLVNTMKASGTLPTQPKVSRNVESHLLAPAEIPGQPVSKNILQELLGQPVQRPASSNLLSGLMGSLEATASLLSQRAPSPPMSQVFRTQAASADYLHPRIPSPIGFPSGPQQLLGDPFQGMRKPMSPVSAQMSQLELQQAALEGLALPHDLAVQTAPFYQPGFSKPQVDRTRDGLRNRQQRMSKSPAPMHGGNSSSPAPAASITSMLSPSFTPTSVIRKMYESREKTKEEMAPGMVVPGDGKEDTQKTSEENLLSSNPIPNTDQDSSTTNPKLSTLQRSSCSTPLSQTSRYTKEQDYRPKTAGRKTPTLASPVPGTPFLRPTHQVPLVPHVPIVRPAHQLHPGLVQRLIAQGVHPQHLPSLLQAGVLPPGIDMAPLQGLSGPLLGQPLYPLVSAASHPLLNPRPGTPLHLAVMQQQLQRSVLHPPGSSSQAAAISVQTPQNVPSRSGMPHMHSQLEHRTSQRSSSPVGLAKWFGSDVLQQPLPSMPTKVISVDELEYRQ
For B2, the binding entry in assay [1] and in assay [2] was “binds” each time.

B3: hnRNPA0 (protein, UniProt Q9CX86 1-305)
chain: MENSQLCKLFIGGLNVQTSESGLRGHFEAFGTLTDCVVVVNPQTKRSRCFGFVTYSNVEEADAAMAASPHAVDGNTVELKRAVSREDSARPGAHAKVKKLFVGGLKGDVAEGDLIEHFSQFGAVEKAEIIADKQSGKKRGFGFVYFQSHDAADKAAVVKFHPIQGHRVEVKKAVPKEDIHAGGGGARAARGGRGGGRGRGGGGGGGGRDQNGLAKGGGGGGGGYNSYGGYGGYGAYGGGGGGGGSYGGSDYGNGFGGFGSYSQHQSSYGPMKSGGGGGGGGSWGGRSNSGPYRGGYGGGYGGGSF
Regarding B3, the binding result in assay [1] and in assay [2] was “binds” each time.

B4: KAP1/TRIM28/TIF1β, Q62318 1-834 (protein)
chain: MAASAAATAAASAATAASAASGSPGSGEGSAGGEKRPAASSAAAASAAASSPAGGGGEAQELLEHCGVCRERLRPERDPRLLPCLHSACSACLGPATPAAANNSGDGGSAGDGAMVDCPVCKQQCYSKDIVENYFMRDSGSKASSDSQDANQCCTSCEDNAPATSYCVECSEPLCETCVEAHQRVKYTKDHTVRSTGPAKTRDGERTVYCNVHKHEPLVLFCESCDTLTCRDCQLNAHKDHQYQFLEDAVRNQRKLLASLVKRLGDKHATLQKNTKEVRSSIRQVSDVQKRVQVDVKMAILQIMKELNKRGRVLVNDAQKVTEGQQERLERQHWTMTKIQKHQEHILRFASWALESDNNTALLLSKKLIYFQLHRALKMIVDPVEPHGEMKFQWDLNAWTKSAEAFGKIVAERPGTNSTGPGPMAPPRAPGPLSKQGSGSSQPMEVQEGYGFGSDDPYSSAEPHVSGMKRSRSGEGEVSGLLRKVPRVSLERLDLDLTSDSQPPVFKVFPGSTTEDYNLIVIERGAAAAAAGQAGTVPPGAPGAPPLPGMAIVKEEETEAAIGAPPAAPEGPETKPVLMPLTEGPGAEGPRLASPSGSTSSGLEVVAPEVTSAPVSGPGILDDSATICRVCQKPGDLVMCNQCEFCFHLDCHLPALQDVPGEEWSCSLCHVLPDLKEEDGSLSLDGADSTGVVAKLSPANQRKCERVLLALFCHEPCRPLHQLATDSTFSMEQPGGTLDLTLIRARLQEKLSPPYSSPQEFAQDVGRMFKQFNKLTEDKADVQSIIGLQRFFETRMNDAFGDTKFSAVLVEPPPLNLPSAGLSSQELSGPGDGP
Turning to B4, the binding entry in assay [3] and in assay [4] was “no binding” throughout.
